Assays:
[1] = target: T1, QP1165 after cleavage to N-terminal glutamine (QRVWK); experiment: on-chip dynamic sequencing of QP1165, 500 nM PS1875 plus five recognizers, 3369 alignments
T1 peptide: QRVWK

[2] = target: T1, QP1165 after cleavage to N-terminal …; experiment: on-chip dynamic sequencing of QP1165, 500 nM PS2121 plus five recognizers, 15527 alignments
[3] = target: T1, QP1165 after cleavage to N-terminal …; experiment: on-chip dynamic sequencing of QP1165, PS2123 run, trace Aperture=501326
[4] = target: T1, QP1165 after cleavage to N-terminal …; experiment: on-chip dynamic sequencing of QP1165, PS1875 run, trace Aperture=295010
[5] = target: T1, QP1165 after cleavage to N-terminal …; experiment: on-chip dynamic sequencing of QP1165, 500 nM PS1875 plus five recognizers, 11565 alignments
Procedure: The semiconductor chip was placed in the sequencing device and a chip check was performed to test electronic circuit function and to optimize laser coupling alignment. The chip was then removed from the device socket and the chip was washed twice with 50 μL of 70% isopropanol, followed by four washes with 30 μL of wash buffer (50 mM MOPS pH 8.0, 60 mM potassium acetate, 50 mM glucose, 20 mM magnesium acetate, and surfactant mix) through a flow cell attached to the chip. A second chip check was then performed. The laser was then blocked via an integrated software-controlled shutter, peptide complex was added to a final concentration of 1-10 nM and mixed thoroughly, and the chip was incubated for 15 min. The chip was then washed six times with wash buffer, followed by addition of an imaging solution (wash buffer with 5 mM Trolox and an oxygen scavenging system). The laser was unblocked and the occupancy percentage (target 10-30%, Poisson distributed) was recorded by acquiring a photobleaching signal from a fluorophore attached to the peptide complex during 5 min of laser illumination. […] Data was recorded for 15 min. […] The laser was then unblocked, and data was recorded for 10 hours. […]

[6] = target: T1, QP1165 after cleavage to N-terminal …; experiment: on-chip dynamic sequencing of QP1165, PS1875 run, trace Aperture=1353995
[7] = target: T1, QP1165 after cleavage to N-terminal …; experiment: on-chip dynamic sequencing of QP1165, PS2121 run, trace Aperture=1683362
[8] = target: T1, QP1165 after cleavage to N-terminal …; experiment: on-chip dynamic sequencing of QP1165, PS1875 run, trace Aperture=340501
[9] = target: T1, QP1165 after cleavage to N-terminal …; experiment: on-chip dynamic sequencing of QP1165, PS1875 run, trace Aperture=430641
[10] = target: T1, QP1165 after cleavage to N-terminal …; experiment: on-chip dynamic sequencing of QP1165, 500 nM PS2132 plus five recognizers, 36192 alignments
[11] = target: T1, QP1165 after cleavage to N-terminal …; experiment: on-chip dynamic sequencing of QP1165, PS2121 run, trace Aperture=740473
[12] = target: T1, QP1165 after cleavage to N-terminal …; experiment: on-chip dynamic sequencing of QP1165, 500 nM PS2123 plus five recognizers, 62511 alignments
[13] = target: T1, QP1165 after cleavage to N-terminal …; experiment: on-chip dynamic sequencing of QP1165, PS2132 run, trace Aperture=376215
[14] = target: T1, QP1165 after cleavage to N-terminal …; experiment: on-chip dynamic sequencing of QP1165, 500 nM PS1875 plus five recognizers, 7305 alignments
[15] = target: T1, QP1165 after cleavage to N-terminal …; experiment: on-chip dynamic sequencing of QP1165, PS2132 run, trace Aperture=1826247

IPD (interpulse duration) [1]: 15.2 s
PD (pulse duration) [1]: 5.27 s
IPD (interpulse duration) [2]: 17 s
PD (pulse duration) [2]: 2.57 s
PD of a recognition segment in an example trace [3]: 4.47 s
PD of a recognition segment in an example trace [4]: 7 s
IPD (interpulse duration) [5]: 17.1 s
PD (pulse duration) [5]: 5.78 s
PD of a recognition segment in an example trace [6]: 6.5 s
PD of a recognition segment in an example trace [7]: 4.56 s
PD of a recognition segment in an example trace [8]: 11.4 s
PD of a recognition segment in an example trace [9]: 7.25 s
IPD (interpulse duration) [10]: 15.3 s
PD (pulse duration) [10]: 2.5 s
PD of a recognition segment in an example trace [11]: 2.84 s
IPD (interpulse duration) [12]: 16.7 s
PD (pulse duration) [12]: 3.61 s
PD of a recognition segment in an example trace [13]: 3.27 s
IPD (interpulse duration) [14]: 16.9 s
PD (pulse duration) [14]: 5.16 s
PD of a recognition segment in an example trace [15]: 4.3 s
B1: PS1599 (designed binder)
single polypeptide, two PS1259 units in tandem: MNGLSAQHERIAPARHECVYTSCYSEENVWKLCEHIKTSKRCPLGDVYAVFISNERKMVPIWKQKSGRGEEPVIWDYQVILLHDCHKEQTFIYDLDTTLPFPCPFDTYVKEAFKSDNYINPAFWRKLRVVPADVFLQNFASDRSHMKDASGGWRMPPPPYPCIETAESRMNLDDFISMNPSVGWGHVYTLEEFVQHFGKTEEEKRKREEEEMNGLSAQHERIAPARHECVYTSCYSEENVWKLCEHIKTSKRCPLGDVYAVFISNERKMVPIWKQKSGRGEEPVIWDYQVILLHDCHKEQTFIYDLDTTLPFPCPFDTYVKEAFKSDNYINPAFWRKLRVVPADVFLQNFASDRSHMKDASGGWRMPPPPYPCIETAESRMNLDDFISMNPSVGWGHVYTLEEFVQHFGKT
notes: also called PS1599 (NQ); PS1599 (R1C1)

— US20240272170A1 (QUANTUM SI, published 2024)
